# Data: PubChem BioAssay AID504834 (National Center for Advancing Translational Sciences (NCATS), 2011)
# The whole screen tested about 320,000 compounds, of which about 22,000 (6.9%) were called active. Inconclusive means that the source gave no clear call. Such entries were picked first, then a sample of the others. Calls come from the whole dose curve; as a rule, active = well fitted inhibition curve with a large enough effect; inconclusive = small, poorly fitted or top-dose-only effect, or another doubt; inactive = no such curve, though single readings can be large or run the other way. Potencies of inconclusive entries are doubtful fits and often do not repeat.
# Experiment: Primary qHTS for delayed death inhibitors of the malarial parasite plastid, 96 hour incubation
# Settings: P. falciparum luciferase reporter growth; series mostly up to 28.7 µM; activity change, negative = inhibition: at the top concentration
# How it was run: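 Infected RBCs, 2% Hct / 0.05% parasitemia final; luciferase-reporter P. falciparum; cpd 96 h, 37 C, 5% CO2; luciferase detection reagent; luminescence.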
# % is set by controls: 0 for no effect and ±100 for the full control effect; potency is the fitted concentration of half-maximal effect.
Structure (SMILES),"activity change, negative = inhibition",Potency
COc1ccccc1/C=C/C(=O)NC1CC2CCC1C2 (stereo unspecified),inactive: 9.8%,–
COc1cccc(/C=N/N=C(\N)c2nonc2N)c1O,inactive: 53.8%,–
CCOC(=O)[C@H]1[C@H]2COc3ccc(OC)cc3[C@@H]2N2C(=O)c3ccc(F)cc3NC(=O)[C@@]12C,–,"inconclusive: 11.7 µM [inhibitor, single point]"
O=C(c1cc2nc(-c3cccs3)cc(C(F)(F)Cl)n2n1)N1CCCc2ccccc21,–,"inconclusive: 18.5 µM [inhibitor, single point]"
COc1ccc(Br)c(C(=O)Nc2cccc(S(=O)(=O)N3CCOCC3)c2)c1,–,"inconclusive: 4.15 µM [inhibitor, partial curve, poor fit]"
Cc1nnc(SCC(=O)N2CCc3ccccc32)s1,–,"inconclusive: 3.7 µM [inhibitor, full curve]"
COc1ccccc1-n1c(CNc2c(C)cccc2C)nnc1SCC(=O)N1CCOCC1,–,active: 11.7 µM
CC[C@@]12CCCN3CCc4c(n(c5ccccc45)[C@](O)(C(=O)OC)C1)C32 (stereo partly specified),–,"inconclusive: 9.53 µM [inhibitor, partial curve, poor fit]"
COCCNC(=O)c1ccccc1NC(=O)CSc1ccc(C)cc1,inactive: -80.6%,–
COc1ccc(CN(C(=O)c2ccc(C)cc2)c2cccc(N)c2)cc1,–,"inconclusive: 18.5 µM [inhibitor, single point]"
O=C(NCC(c1ccco1)N1CCc2ccccc21)c1ccccc1F (stereo unspecified),–,"inconclusive: 11.7 µM [inhibitor, partial curve]"
O=C(NCc1ccc(Cl)cc1)c1cc(-c2cccs2)on1,–,"inconclusive: 11.7 µM [inhibitor, partial curve, poor fit]"
O=C(CNCC1(N2CCOCC2)CCCCC1)Nc1ccc(Cl)cc1,inactive: -27.4%,–
COc1ccccc1NC(=O)C1=C(C)Nc2nc(-c3ccccc3)nn2C1c1ccccn1 (stereo unspecified),–,"inconclusive: 13.1 µM [inhibitor, single point]"
Cc1cc(OC(=O)c2cc([N+](=O)[O-])ccc2Cl)c([N+](=O)[O-])c(=O)[nH]1,inactive: 38.9%,–
CC(C)Cn1c(N)c(C(=O)CSc2nncs2)c(=O)n(C)c1=O,–,"inconclusive: 5.22 µM [inhibitor, partial curve]"
COc1cccc(N2CCN(C(=O)C3CCCN(c4ncnc5c4nc4n5CCCCC4)C3)CC2)c1 (stereo unspecified),–,active: 10.4 µM
CCCCn1nc(NC(=O)COC)c2cc3cc(OC)ccc3nc21,inactive: 41.1%,–
O=C(NC(=S)NC(CO)Cc1ccccc1)c1ccc(F)cc1 (stereo unspecified),inactive: 154%,–
COc1ccc(-n2c(-c3ccccc3)cc3c2CCCC3=O)cc1,–,"inconclusive: 18.5 µM [inhibitor, partial curve, poor fit]"
COc1ccc2cc3cc(C(=O)Nc4cc(OC)c(OC)c(OC)c4)oc3nc2c1,–,"inconclusive: 18.5 µM [inhibitor, single point]"
COc1ccc2nc(SCC(=O)N3CC(=O)Nc4ccccc43)c(C#N)cc2c1,–,"inconclusive: 18.5 µM [inhibitor, single point]"

Structure (SMILES),"activity change, negative = inhibition",Potency
O=c1c2ccccc2cnn1Cc1n[nH]c(=S)n1-c1ccc(F)c(Cl)c1,–,"inconclusive: 10.4 µM [inhibitor, single point]"
COc1ccc(OCC(=O)NN2Cc3ccccc3C2=N)cc1,–,"inconclusive: 13.1 µM [inhibitor, partial curve, poor fit]"
CC(=O)c1cccc(NC(=O)c2ccc(CN3CCc4ccccc4C3)cc2)c1,–,"inconclusive: 18.5 µM [inhibitor, single point]"
CC(=O)c1cccc(S(=O)(=O)N2CCCC(c3nc4c(nnn4Cc4cccc(Cl)c4)c(=O)[nH]3)C2)c1 (stereo unspecified),–,active: 8.28 µM
CC(=O)Nc1ccc(NC(=O)CSc2nc3[nH]ncc3c(=O)n2-c2ccccc2)cc1,–,"inconclusive: 10.4 µM [inhibitor, single point]"
CC(C)NC(=O)NC(=O)COC(=O)c1c2c(nc3ccccc13)CCC2,–,"inconclusive: 18.5 µM [inhibitor, single point]"
O=C(O)C1CCCN1c1nc(C(F)(F)F)nc2ccccc12 (stereo unspecified),–,"inconclusive: 0.37 µM [inhibitor, full curve, poor fit]"
COc1cc(CNc2ccc(O)cc2)cc(Br)c1OCc1ccccc1F,–,"inconclusive: 18.5 µM [inhibitor, single point]"
CCn1cc(C(=O)O)c(=O)c2cc(F)c(N3CCN(C(=S)NC(=O)c4ccccc4)CC3)cc21,–,"inconclusive: 9.28 µM [inhibitor, partial curve]"
O=C(O)c1ccccc1-c1nc2ccccc2c(=O)n1O,–,"inconclusive: 18.5 µM [inhibitor, partial curve, poor fit]"
CCCCC1(c2ccc(F)cc2)NC(=O)N(CC(=O)N2CCN(C(=O)c3ccco3)CC2)C1=O (stereo unspecified),–,active: 6.57 µM
CC(C)CCN(C(=O)Nc1ccc(Cl)cc1)C1CCN(C(C)C)CC1,–,"inconclusive: 2.94 µM [inhibitor, partial curve, poor fit]"
COc1ccc([C@H]2CC(=O)C=C(c3ccc(Cl)c(C(F)(F)F)c3)C2)cc1OC,–,"inconclusive: 0.0828 µM [inhibitor, full curve, poor fit]"
COc1cc(OC)cc(C(=O)Nc2ccc3c(c2)OCCO3)c1,–,"inconclusive: 13.1 µM [inhibitor, single point]"
CC(=O)c1sc(Nc2nc(C)cc(C)n2)nc1C,inactive: 32.5%,–
O=c1[nH]cnc2c1sc1nc(C(F)F)cc(-c3ccccc3)c12,inactive: 18.2%,–
CCc1cccc(CC)c1NC(=S)NC(C)c1ccccc1 (stereo unspecified),inactive: 0%,–
Cc1cccc(OCC(=O)Nc2cc(S(=O)(=O)N3CCOCC3)ccc2N2CCCC2)c1C,–,active: 7.38 µM
Cn1c(=O)c2c(-c3ccc(C(C)(C)C)cc3)n(CC3CCCO3)cc2n(C)c1=O (stereo unspecified),–,"inconclusive: 0.0023 µM [inhibitor, full curve, poor fit]"
NC(=O)c1ccsc1NC(=O)COC(=O)COc1ccccc1F,inactive: 2.34%,–
COCc1ccc([C@@H]2C[C@H]3CN(Cc4cccnc4)C(=O)[C@]34CCCN24)o1,–,"inconclusive: 20.8 µM [inhibitor, single point]"
Cc1ccc2nc3c(cc(C#N)c(=N)n3Cc3cccnc3)c(=O)n2c1,–,"inconclusive: 3.7 µM [inhibitor, full curve, poor fit]"

Structure (SMILES),"activity change, negative = inhibition",Potency
CCCN(CCC)CCCNC(=O)c1nn(-c2cccc(OC)c2)c(=O)c2ccccc12,–,active: 11.7 µM
COc1ccc(N/C(=N/c2nc(C)cc(C)n2)NC(=O)Nc2ccc(Cl)c(Cl)c2)c(OC)c1,–,active: 10.4 µM
COc1cc(-c2noc(C)c2C#Cc2ccc(N)cc2)cc(OC)c1OC,–,"inconclusive: 2.62 µM [inhibitor, partial curve, poor fit]"
CCCCOc1ccc(C(=O)NCCc2ccccc2)cc1,–,active: 2.62 µM
O=C1CC(N2CCN(c3ccc(F)cc3)CC2)C(=O)N1Cc1ccccc1 (stereo unspecified),–,"inconclusive: 18.5 µM [inhibitor, single point]"
Cc1nnc(SC(C)C(=O)Nc2ccc3ccccc3c2)[nH]c1=O (stereo unspecified),inactive: 23.4%,–
O=C(Nc1nc(COc2ccccc2)cs1)C12CC3CC(CC(C3)C1)C2,–,"inconclusive: 18.5 µM [inhibitor, single point]"
c1csc(-c2ccc(N3CCOCC3)nn2)c1,–,"inconclusive: 2.33 µM [inhibitor, full curve]"
COc1ccc(OC)c(N2C(=O)CC(Cc3ccc(Cl)cc3)C2=O)c1 (stereo unspecified),–,"inconclusive: 18.5 µM [inhibitor, single point]"
Cc1ccc(-c2csc(NC(=O)CSc3ncn(-c4ccccc4)n3)n2)cc1,–,"inconclusive: 11.7 µM [inhibitor, partial curve, poor fit]"
CCOCCCn1c(=NC(=O)c2cccnc2)c(C(=O)OCC)cc2c(=O)n3ccccc3nc21,–,"inconclusive: 0.828 µM [inhibitor, full curve, poor fit]"
CC(=O)Oc1ccc(OC(C)=O)c(S(=O)(=O)c2ccc(C)c(C)c2)c1,–,active: 11.7 µM
O=C(OCCN1C(=O)c2cccc3c(N4CCOCC4)ccc(c23)C1=O)c1ccc(Cl)cc1Cl,–,"inconclusive: 18.5 µM [inhibitor, single point]"
CCOC(=O)c1nn(-c2ccc(F)cc2)c2nc(CC(C)C)c(C#N)c(=O)n12,–,"inconclusive: 18.5 µM [inhibitor, single point]"
O=C(CCCc1ccccc1)NCc1cn2ccsc2n1,inactive: 14.8%,–
CCOC(=O)N1CCN(C(=O)C(C)c2ccc([N+](=O)[O-])cc2)CC1 (stereo unspecified),–,"inconclusive: 10.4 µM [inhibitor, single point]"
CN(C)CCNC(=O)C1(O)c2cc(Br)ccc2NC(=O)N1c1ccc(Cl)cc1 (stereo unspecified),inactive: 1.81%,–
CC(NC(=O)c1cc(-c2ccc3c(c2)OCO3)nc2ccccc12)C(C)(C)C (stereo unspecified),–,"inconclusive: 11.7 µM [inhibitor, partial curve, poor fit]"
Clc1ccc(COc2ccccn2)c(Cl)c1,–,"inconclusive: 18.5 µM [inhibitor, single point]"
Cc1sc(N/N=C/c2cc([N+](=O)[O-])ccc2O)nc1-c1ccccc1,–,"inconclusive: 0.415 µM [inhibitor, partial curve, poor fit]"
CCC1=C(OC(=O)N(CC)CC)N2C(=O)OC(=NCCc3c[nH]c4ccccc34)[C@]2(Cc2ccccc2)[C@H]2C1=CC[C@H]1C(=O)N(c3ccccc3)C(=O)[C@H]12,–,"inconclusive: 2.62 µM [inhibitor, partial curve]"
Cc1ccc(S(=O)(=O)N(C)C)cc1NC(=O)c1cc(C(C)(C)C)nn1Cc1ccccc1,–,active: 7.38 µM
